From PMC3355077
Results are given in words; binding and its absence hold for the method and conditions named. Binding seen in cells or lysates may run through a third protein. Here binding means that the protein was enriched with, or labelled near, the bait; the list need not be complete.

Amino acid sequences for entries named in this document (tags omitted). A change or cut given only in a name is not applied to a line headed by its entry. Chains listed by the source or under a name are the forms on record and can include a tag or linker.
Psip1/p52 (endogenous) (mouse (endogenous in NIH 3T3 and MEFs)) (Q99JF8, form named): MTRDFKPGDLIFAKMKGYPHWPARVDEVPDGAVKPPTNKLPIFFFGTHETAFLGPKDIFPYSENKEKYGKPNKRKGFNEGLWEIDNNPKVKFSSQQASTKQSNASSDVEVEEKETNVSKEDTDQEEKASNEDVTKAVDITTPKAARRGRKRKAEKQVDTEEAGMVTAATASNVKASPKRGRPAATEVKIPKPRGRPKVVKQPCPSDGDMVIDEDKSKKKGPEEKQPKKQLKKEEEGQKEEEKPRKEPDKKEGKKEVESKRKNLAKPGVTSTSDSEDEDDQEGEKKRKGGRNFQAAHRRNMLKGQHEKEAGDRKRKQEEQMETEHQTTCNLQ
UniProt Q61136: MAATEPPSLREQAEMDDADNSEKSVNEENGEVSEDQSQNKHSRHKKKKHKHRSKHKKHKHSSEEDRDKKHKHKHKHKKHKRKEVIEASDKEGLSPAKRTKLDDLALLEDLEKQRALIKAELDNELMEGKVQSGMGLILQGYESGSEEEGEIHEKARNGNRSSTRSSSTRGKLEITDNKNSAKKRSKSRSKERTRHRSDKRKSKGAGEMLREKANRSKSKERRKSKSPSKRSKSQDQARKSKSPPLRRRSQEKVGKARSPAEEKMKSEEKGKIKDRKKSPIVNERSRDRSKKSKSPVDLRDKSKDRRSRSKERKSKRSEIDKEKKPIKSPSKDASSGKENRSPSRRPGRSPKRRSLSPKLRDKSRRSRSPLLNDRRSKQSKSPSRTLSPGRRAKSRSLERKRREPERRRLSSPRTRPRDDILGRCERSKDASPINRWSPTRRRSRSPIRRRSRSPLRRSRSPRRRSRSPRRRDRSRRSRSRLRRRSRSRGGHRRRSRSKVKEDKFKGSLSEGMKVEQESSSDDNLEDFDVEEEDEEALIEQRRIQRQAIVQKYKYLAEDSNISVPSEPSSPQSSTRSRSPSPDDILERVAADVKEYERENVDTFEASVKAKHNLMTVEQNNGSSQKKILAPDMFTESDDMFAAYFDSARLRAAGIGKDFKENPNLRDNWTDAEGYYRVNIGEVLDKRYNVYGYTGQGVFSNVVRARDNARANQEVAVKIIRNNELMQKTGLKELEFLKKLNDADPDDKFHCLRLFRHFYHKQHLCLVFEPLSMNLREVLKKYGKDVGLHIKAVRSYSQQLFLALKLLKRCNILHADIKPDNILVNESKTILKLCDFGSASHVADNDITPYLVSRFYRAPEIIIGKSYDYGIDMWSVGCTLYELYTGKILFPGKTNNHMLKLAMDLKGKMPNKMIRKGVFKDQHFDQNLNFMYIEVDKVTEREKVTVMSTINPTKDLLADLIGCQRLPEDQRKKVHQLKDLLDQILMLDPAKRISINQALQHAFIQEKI
UniProt Q00PI9: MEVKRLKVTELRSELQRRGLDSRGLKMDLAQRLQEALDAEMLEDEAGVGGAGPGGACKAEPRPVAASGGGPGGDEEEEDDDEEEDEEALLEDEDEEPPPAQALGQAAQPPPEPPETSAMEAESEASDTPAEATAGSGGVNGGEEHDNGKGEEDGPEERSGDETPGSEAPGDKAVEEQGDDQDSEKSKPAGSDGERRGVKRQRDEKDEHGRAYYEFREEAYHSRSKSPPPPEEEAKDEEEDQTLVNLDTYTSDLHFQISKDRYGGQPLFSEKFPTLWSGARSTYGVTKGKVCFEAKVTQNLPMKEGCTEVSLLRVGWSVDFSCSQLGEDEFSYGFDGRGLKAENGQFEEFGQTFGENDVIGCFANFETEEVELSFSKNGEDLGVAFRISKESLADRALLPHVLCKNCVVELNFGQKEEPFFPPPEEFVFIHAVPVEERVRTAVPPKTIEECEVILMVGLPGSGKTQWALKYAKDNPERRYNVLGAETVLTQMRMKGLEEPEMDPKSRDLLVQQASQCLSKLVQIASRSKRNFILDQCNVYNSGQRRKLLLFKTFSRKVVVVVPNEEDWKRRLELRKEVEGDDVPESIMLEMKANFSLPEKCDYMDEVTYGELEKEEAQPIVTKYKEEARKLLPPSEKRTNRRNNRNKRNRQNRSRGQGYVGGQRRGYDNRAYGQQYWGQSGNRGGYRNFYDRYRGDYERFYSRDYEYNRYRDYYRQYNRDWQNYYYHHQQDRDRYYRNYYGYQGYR
UniProt Q6P4T2: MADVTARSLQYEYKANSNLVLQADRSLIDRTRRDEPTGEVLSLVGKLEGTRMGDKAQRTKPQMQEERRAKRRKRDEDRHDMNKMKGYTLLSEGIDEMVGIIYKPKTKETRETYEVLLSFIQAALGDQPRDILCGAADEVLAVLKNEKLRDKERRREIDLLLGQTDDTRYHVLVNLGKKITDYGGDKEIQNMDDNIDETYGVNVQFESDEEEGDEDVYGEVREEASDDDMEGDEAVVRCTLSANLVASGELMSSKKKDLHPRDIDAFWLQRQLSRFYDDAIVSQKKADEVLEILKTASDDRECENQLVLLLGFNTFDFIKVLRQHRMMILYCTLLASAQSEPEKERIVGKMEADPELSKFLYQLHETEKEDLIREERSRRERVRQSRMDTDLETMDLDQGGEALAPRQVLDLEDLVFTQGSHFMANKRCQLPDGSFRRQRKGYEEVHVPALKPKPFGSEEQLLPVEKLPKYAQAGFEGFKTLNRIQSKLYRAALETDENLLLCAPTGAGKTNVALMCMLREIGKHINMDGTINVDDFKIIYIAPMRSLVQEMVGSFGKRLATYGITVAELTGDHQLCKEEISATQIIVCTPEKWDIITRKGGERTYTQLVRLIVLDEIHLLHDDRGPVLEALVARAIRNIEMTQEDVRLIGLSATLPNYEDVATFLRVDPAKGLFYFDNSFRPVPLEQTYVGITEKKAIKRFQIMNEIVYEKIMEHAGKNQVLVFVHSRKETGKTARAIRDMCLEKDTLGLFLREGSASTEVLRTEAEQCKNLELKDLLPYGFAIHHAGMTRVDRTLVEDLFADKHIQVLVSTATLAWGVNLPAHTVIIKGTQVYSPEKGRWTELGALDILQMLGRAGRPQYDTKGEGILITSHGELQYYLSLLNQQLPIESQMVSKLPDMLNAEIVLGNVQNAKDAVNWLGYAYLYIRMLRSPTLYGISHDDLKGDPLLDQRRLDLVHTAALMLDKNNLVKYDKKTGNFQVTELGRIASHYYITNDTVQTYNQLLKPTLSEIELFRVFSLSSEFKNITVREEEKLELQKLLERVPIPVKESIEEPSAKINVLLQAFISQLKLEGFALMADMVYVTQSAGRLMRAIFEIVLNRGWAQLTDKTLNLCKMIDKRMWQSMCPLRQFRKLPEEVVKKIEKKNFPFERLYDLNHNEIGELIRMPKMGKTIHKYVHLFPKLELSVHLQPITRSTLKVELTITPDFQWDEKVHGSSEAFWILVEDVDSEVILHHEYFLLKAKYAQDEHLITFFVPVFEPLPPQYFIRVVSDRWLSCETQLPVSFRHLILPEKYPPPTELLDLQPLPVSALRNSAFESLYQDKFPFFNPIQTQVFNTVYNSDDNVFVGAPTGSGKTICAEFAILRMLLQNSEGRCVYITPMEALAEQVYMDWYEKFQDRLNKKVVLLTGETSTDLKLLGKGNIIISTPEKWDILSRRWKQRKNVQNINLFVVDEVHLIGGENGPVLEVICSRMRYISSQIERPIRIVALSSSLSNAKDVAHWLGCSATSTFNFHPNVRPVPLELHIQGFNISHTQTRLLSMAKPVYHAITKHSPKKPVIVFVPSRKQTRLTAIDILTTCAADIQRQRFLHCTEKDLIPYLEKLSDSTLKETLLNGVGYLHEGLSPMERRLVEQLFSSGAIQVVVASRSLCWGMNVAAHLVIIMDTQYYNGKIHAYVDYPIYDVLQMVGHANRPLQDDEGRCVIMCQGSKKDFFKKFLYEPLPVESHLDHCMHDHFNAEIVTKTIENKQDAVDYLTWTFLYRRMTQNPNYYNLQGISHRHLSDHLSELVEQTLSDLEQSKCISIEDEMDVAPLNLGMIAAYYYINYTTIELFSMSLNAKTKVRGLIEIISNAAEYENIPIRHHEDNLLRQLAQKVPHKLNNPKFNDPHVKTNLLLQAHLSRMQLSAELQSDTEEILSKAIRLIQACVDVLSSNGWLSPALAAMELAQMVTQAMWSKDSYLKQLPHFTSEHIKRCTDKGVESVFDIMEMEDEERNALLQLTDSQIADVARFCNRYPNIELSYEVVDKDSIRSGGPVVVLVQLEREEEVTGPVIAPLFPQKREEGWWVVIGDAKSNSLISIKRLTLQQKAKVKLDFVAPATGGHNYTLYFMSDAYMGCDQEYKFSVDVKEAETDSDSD
UniProt Q61584: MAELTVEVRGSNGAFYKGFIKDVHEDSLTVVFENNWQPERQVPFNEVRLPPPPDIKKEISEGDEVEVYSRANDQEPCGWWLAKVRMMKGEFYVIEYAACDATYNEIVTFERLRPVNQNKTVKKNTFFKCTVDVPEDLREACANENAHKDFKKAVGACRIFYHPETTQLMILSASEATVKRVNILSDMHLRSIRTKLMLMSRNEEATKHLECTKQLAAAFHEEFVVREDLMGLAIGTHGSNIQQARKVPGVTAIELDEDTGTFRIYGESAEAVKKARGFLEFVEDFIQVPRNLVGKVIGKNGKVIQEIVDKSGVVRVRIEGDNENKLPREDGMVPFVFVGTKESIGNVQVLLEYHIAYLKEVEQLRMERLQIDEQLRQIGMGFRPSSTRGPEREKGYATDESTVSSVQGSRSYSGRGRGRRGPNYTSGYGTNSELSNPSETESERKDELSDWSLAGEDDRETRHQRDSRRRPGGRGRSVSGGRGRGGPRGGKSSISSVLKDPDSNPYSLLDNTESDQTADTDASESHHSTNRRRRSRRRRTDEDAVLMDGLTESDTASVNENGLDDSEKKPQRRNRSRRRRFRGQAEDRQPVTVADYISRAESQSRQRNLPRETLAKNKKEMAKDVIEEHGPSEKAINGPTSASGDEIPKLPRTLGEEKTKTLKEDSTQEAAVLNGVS
UniProt O35286: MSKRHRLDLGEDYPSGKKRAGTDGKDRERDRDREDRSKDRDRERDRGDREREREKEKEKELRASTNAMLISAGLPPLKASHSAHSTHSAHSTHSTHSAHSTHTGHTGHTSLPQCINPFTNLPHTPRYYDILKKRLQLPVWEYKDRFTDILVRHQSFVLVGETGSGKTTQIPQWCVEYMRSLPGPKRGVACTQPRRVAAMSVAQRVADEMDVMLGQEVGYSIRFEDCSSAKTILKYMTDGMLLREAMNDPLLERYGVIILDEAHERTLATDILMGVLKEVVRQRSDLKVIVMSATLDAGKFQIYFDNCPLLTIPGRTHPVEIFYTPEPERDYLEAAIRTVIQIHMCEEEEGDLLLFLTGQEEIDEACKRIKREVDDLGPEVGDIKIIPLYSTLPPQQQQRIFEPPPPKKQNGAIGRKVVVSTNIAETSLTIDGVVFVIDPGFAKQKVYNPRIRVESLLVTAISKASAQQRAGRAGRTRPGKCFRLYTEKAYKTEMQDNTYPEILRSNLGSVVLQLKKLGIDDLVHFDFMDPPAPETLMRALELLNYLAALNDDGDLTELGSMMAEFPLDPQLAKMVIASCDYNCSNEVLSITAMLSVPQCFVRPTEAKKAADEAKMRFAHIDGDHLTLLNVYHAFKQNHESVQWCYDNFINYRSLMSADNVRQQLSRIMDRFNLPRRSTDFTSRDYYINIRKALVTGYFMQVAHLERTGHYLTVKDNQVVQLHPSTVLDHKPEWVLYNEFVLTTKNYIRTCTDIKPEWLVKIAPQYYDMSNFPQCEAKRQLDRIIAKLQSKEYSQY
UniProt O35691: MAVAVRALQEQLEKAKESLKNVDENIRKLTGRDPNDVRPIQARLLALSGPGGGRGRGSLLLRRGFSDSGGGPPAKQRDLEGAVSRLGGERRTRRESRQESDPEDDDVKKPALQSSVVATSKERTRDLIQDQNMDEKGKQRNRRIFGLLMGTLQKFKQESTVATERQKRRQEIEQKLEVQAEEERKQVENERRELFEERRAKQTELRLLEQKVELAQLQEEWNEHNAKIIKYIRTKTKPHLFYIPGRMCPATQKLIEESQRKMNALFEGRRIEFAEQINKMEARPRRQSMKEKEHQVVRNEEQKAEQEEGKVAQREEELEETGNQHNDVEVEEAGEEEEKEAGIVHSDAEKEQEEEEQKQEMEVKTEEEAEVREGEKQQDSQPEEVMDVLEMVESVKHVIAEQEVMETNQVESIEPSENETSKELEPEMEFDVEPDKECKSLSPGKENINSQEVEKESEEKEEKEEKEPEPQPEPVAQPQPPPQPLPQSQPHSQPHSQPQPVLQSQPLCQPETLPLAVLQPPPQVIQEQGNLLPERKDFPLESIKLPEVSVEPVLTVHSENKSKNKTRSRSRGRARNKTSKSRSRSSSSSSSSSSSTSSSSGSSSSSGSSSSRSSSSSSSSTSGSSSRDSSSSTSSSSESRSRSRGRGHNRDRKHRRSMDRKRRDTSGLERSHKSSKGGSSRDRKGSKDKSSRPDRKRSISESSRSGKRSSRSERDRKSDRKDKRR

Target: Psip1/p52 (endogenous) (mouse (endogenous in NIH 3T3 and MEFs)) (UniProt Q99JF8)
Assay: affinity purification with mass spectrometry; A300-847 IP from NIH 3T3 nuclear extract, washes with 200 mM KCl; gel bands analysed by MS/MS (Mascot)

Row | Substance | binding
1 | DDX3Y (from UniProt Q62095 1-658) | binds
2 | Srsf1 (endogenous) (from UniProt Q6PDM2 1-248) | binds
3 | DDX3X (from UniProt Q62167 1-662) | binds
4 | SRp38 (from UniProt Q9R0U0-1 1-262) | binds
5 | RRP5 (from UniProt Q6NS46 1-1862) | binds
6 | NOC2L (from UniProt Q9WV70 1-747) | binds
7 | hnRNPg (from UniProt Q9WV02 1-391) | binds
8 | Prpf4b (from UniProt Q61136 1-1007) | binds
9 | hnRNPu like (from UniProt Q00PI9 1-745) | binds
10 | DHX 9 (from UniProt O70133 1-1380) | binds
11 | Safb2 (from UniProt Q80YR5 1-991) | binds

Second part, the substance after the results:

Row | binding | Substance
12 | binds | U5-200KD (from UniProt Q6P4T2 1-2136)
13 | binds | FXR1 (from UniProt Q61584 1-677)
14 | binds | Srrm2 (from UniProt Q8BTI8 1-2703)
15 | binds | DHX15 (from UniProt O35286 1-795)
16 | binds | Ppig (from UniProt A2AR02 1-752)
17 | binds | DDX10 (from UniProt Q80Y44 1-875)
18 | binds | hnRNPk (from UniProt P61979 1-463)
19 | binds | Pinin (from UniProt O35691 1-725)
20 | binds | DDX54 (from UniProt Q8K4L0 1-874)
21 | binds | DDX41 (from UniProt Q91VN6 1-622)

Target: Psip1/p52 (endogenous) (mouse (endogenous in NIH 3T3 and MEFs)) (UniProt Q99JF8)
Assay: affinity purification with mass spectrometry; A300-847 IP from wild-type MEF nuclear extract; gel region of 25-40 kDa analysed by mass spectrometry

Row | binding | Substance
22 | binds | Srsf1 (endogenous) (from UniProt Q6PDM2 1-248)
